The target of experiment [1] is T1, Kv4.2 potassium channel subunit (mouse (endogenous in striatum)) (UniProt Q9Z0V2).
T1 sequence: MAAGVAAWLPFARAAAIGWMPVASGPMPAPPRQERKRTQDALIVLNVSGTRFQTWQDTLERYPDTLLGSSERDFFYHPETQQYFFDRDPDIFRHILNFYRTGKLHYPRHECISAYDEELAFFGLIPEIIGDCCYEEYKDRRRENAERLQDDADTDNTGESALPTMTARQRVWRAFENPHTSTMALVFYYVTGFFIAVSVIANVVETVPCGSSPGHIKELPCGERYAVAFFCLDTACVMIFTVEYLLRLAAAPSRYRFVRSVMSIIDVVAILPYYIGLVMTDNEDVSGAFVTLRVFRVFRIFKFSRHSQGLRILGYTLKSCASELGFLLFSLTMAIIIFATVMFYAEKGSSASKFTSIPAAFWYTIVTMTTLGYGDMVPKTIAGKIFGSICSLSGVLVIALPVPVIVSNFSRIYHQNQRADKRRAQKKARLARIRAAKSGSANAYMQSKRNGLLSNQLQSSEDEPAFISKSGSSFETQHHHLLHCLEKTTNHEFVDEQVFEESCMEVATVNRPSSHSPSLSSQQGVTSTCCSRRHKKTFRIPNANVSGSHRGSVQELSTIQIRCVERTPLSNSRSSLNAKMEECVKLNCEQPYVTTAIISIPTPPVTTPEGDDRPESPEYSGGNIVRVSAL
Kind of experiment: co-IP; goat anti-Kv4.2 antibody (C20), 5 ug, with 200 ug membrane protein of mouse dorsal striatum lysate (wild-type or Q175 het, 6-8 months) overnight at 4 C, protein A/G magnetic beads, Western blot; in some experiments slices were incubated before with 50 ng/ml BDNF for 20 min, or 200 nM ROCK inhibitor SR3850 then BDNF. A general note: A western blot detects proteins with antibodies after separation by electrophoresis.

By UniProt entry, the sequences of proteins in these tests, tags left out.
UniProt P63141: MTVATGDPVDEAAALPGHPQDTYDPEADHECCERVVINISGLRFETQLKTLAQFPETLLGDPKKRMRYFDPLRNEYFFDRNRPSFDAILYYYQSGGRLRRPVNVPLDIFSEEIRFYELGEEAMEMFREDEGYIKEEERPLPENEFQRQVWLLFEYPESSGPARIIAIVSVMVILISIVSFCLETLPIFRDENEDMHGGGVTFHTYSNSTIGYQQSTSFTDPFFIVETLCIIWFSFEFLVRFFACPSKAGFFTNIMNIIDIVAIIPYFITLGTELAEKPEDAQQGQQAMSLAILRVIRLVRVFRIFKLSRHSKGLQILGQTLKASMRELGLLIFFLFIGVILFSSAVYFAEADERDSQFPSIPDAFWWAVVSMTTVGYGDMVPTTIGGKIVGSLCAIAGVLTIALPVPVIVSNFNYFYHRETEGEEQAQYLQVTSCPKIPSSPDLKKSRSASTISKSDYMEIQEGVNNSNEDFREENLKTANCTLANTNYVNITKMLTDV
UniProt Q99246: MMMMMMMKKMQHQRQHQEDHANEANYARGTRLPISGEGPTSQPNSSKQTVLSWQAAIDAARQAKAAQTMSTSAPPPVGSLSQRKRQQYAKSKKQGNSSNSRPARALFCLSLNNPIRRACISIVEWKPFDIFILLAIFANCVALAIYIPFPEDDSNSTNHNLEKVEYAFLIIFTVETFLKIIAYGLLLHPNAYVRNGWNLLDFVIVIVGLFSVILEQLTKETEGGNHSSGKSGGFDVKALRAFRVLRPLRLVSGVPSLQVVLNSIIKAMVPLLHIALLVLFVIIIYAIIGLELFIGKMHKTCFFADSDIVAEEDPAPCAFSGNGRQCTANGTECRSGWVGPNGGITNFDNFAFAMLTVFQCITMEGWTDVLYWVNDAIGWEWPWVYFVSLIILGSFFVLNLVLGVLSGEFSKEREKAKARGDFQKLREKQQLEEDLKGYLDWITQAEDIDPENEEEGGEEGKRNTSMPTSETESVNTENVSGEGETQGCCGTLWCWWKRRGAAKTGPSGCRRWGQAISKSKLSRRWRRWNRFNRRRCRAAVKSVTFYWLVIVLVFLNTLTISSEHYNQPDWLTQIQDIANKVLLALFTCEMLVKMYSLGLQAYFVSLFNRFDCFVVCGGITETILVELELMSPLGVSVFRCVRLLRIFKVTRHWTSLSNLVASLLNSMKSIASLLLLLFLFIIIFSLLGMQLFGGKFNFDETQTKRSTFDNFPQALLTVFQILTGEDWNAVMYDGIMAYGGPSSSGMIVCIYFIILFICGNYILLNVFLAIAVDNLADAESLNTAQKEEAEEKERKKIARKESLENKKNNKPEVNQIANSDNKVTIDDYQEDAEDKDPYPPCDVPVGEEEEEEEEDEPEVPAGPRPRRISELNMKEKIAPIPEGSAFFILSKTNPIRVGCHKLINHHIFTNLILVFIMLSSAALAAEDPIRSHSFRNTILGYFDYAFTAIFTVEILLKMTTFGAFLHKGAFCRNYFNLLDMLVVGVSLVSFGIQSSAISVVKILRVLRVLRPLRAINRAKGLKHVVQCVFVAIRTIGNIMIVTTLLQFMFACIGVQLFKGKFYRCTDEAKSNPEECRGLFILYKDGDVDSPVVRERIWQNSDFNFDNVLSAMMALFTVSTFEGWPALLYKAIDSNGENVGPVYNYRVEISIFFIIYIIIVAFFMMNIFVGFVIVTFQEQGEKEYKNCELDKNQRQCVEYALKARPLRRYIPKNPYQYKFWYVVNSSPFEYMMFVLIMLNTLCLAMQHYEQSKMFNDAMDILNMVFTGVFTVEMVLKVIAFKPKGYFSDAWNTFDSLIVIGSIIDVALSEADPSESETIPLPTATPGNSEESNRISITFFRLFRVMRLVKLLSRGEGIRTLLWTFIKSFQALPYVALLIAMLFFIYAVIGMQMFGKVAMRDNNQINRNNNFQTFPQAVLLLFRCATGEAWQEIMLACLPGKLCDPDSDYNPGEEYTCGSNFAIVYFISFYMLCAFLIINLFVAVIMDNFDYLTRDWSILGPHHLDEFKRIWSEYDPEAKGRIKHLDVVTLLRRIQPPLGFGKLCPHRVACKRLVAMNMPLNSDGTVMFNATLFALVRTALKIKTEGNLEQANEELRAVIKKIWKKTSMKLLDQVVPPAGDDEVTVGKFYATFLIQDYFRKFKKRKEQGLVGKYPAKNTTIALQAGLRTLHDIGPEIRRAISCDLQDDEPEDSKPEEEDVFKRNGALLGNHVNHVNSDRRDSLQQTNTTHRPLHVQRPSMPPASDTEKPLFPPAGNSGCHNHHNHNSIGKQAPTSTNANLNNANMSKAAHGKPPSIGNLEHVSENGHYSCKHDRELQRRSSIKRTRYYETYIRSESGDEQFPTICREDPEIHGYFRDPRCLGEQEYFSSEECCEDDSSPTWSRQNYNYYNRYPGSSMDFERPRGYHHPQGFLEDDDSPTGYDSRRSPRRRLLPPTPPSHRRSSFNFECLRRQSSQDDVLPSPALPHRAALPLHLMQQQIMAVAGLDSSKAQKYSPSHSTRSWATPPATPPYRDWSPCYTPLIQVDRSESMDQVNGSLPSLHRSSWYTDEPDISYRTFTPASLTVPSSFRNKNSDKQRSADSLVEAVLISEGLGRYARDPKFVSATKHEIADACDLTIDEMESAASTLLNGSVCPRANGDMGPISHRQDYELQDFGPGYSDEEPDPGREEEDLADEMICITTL
UniProt O88427: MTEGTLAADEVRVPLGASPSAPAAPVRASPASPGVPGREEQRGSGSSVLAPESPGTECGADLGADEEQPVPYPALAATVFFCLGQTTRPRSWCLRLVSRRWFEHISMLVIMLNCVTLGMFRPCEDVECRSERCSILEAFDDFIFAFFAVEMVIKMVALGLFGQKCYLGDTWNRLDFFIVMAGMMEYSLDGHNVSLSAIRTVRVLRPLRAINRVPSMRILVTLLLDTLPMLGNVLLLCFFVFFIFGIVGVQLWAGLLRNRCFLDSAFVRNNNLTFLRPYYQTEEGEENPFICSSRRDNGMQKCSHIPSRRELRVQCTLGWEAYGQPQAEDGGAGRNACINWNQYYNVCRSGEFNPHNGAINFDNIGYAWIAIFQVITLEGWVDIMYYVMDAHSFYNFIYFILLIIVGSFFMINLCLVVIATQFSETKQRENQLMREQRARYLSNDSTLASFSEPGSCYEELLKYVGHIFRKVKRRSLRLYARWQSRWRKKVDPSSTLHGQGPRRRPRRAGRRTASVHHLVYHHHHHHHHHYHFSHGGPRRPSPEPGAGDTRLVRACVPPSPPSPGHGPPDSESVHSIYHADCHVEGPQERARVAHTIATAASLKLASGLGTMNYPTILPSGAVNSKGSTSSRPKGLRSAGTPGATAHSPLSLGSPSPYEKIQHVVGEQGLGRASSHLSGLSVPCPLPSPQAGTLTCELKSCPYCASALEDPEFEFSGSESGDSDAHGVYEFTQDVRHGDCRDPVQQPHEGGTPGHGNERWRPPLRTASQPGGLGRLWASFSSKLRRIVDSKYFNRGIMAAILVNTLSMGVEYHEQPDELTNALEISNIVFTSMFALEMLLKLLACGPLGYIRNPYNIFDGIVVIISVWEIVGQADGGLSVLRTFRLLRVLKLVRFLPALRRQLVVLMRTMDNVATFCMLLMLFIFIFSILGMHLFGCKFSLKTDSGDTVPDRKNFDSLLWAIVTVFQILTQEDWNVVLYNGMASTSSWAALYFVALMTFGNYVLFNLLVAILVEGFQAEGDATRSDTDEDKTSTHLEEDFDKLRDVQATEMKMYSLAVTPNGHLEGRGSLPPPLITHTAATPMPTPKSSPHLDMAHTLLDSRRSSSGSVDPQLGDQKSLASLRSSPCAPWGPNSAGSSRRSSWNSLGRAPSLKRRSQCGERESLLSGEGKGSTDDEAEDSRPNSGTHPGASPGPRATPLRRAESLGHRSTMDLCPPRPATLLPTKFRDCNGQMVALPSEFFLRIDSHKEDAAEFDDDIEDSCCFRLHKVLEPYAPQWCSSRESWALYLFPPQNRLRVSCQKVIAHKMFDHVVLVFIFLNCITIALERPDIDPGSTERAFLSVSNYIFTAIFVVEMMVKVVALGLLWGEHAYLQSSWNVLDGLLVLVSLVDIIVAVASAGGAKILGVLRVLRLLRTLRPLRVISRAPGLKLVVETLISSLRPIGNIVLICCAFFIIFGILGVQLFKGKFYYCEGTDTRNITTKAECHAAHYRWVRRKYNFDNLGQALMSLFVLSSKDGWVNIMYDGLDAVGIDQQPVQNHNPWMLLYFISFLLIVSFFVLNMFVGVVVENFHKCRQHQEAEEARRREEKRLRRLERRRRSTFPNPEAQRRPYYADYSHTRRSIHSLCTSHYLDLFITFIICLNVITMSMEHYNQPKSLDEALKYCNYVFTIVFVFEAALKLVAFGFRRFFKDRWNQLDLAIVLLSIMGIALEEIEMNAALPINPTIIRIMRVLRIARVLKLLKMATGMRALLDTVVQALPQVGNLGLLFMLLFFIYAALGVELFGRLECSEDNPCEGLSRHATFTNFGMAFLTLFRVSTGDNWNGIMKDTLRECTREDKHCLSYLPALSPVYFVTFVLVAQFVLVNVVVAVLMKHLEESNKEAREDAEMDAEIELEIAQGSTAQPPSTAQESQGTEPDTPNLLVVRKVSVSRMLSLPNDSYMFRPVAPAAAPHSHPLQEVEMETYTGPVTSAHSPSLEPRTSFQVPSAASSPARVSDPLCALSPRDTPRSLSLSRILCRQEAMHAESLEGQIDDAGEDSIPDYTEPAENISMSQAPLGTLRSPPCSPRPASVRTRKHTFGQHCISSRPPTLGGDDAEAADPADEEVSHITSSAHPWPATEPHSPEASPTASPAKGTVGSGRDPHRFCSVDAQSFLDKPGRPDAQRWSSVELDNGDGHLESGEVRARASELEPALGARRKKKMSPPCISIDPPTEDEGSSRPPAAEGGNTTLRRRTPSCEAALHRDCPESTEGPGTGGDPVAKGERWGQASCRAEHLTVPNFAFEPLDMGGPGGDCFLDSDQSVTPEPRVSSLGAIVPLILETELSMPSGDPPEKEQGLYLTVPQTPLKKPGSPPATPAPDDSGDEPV

The target in experiment [2] is Kv1.2 potassium channel subunit (mouse (endogenous in striatum)) (UniProt P63141). Nature of the experiment: co-IP; rabbit anti-Kv1.2 antibody (ThermoFisher PA5-23006), 5 ug, with 200 ug membrane protein of mouse dorsal striatum lysate overnight at 4 C, protein A/G magnetic beads, Western blot for KChIP2.
The target of experiment [3] is T1, Kv4.2 potassium channel subunit (mouse (endogenous in striatum)). Nature of the experiment: co-IP; goat anti-Kv4.2 antibody (C20), 5 ug, with 200 ug membrane protein of mouse dorsal striatum lysate (wild-type or Q175 het, 6-8 months) overnight at 4 C, protein A/G magnetic beads, Western blot; in some experiments slices were incubated before with 50 ng/ml BDNF for 20 min, or 200 nM ROCK inhibitor SR3850 then BDNF. This is another data set of the same source.

Where two headings read alike, the source gives them in different places. Results are given in words; binding and its absence hold for the method and conditions named. In cells and extracts the contact can be indirect. Some binding calls cover weakened binding; strength is not graded here.

“Cav1.3 Ca2+ channel (from UniProt Q99246 1-2179)”: the binding entry in experiment [1] is “no binding”.
As for “Cav3.2 Ca2+ channel subunit (from UniProt O88427 1-2365)”, in experiment [1], the binding result is on record as “binds”.

B1: KChIP2 (protein, UniProt Q9JJ69 1-270)
chain: MRGQGRKESLSDSRDLDGSYDQLTGHPPGPSKKALKQRFLKLLPCCGPQALPSVSETLAAPASLRPHRPRPLDPDSVEDEFELSTVCHRPEGLEQLQEQTKFTRRELQVLYRGFKNECPSGIVNEENFKQIYSQFFPQGDSSNYATFLFNAFDTNHDGSVSFEDFVAGLSVILRGTIDDRLNWAFNLYDLNKDGCITKEEMLDIMKSIYDMMGKYTYPALREEAPREHVESFFQKMDRNKDGVVTIEEFIESCQQDENIMRSMQLFDNVI
As for B1, the binding entry in experiment [2] is given as “no binding”; in experiment [3], “binds”.

B2: KChIP1 (protein, UniProt Q9JJ57 1-227)
chain: MGAVMGTFSSLQTKQRRPSKDIAWWYYQYQRDKIEDELEMTMVCHRPEGLEQLEAQTNFTKRELQVLYRGFKNECPSGVVNEETFKQIYAQFFPHGDASTYAHYLFNAFDTTQTGSVKFEDFVTALSILLRGTVHEKLRWTFNLYDINKDGYINKEEMMDIVKAIYDMMGKYTYPVLKEDTPRQHVDVFFQKMDKNKDGIVTLDEFLESCQEDDNIMRSLQLFQNVM
Regarding B2, the binding result in experiment [3] is given as “binds”.
